Among the data in article doi:10.1101/775536 are binding values, retold here.

Protein sequences, listed by entry. Tags and fused reporters are not part of them.
UniProt A0A0H2ZQL5: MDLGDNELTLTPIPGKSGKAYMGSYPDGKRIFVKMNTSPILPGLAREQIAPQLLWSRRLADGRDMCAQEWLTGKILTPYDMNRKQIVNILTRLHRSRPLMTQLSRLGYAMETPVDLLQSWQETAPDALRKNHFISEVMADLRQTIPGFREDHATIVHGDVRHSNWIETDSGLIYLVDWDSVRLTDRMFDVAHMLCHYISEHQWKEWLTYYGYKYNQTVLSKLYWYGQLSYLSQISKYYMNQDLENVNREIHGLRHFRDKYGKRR
UniProt A0ACD7PQ13: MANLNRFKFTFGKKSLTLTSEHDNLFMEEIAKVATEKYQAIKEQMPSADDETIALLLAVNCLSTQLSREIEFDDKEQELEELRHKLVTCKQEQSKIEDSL

The target in experiment [1] is CcrZ-LgBit (S. pneumoniae D39V). Kind of experiment: split reporter.
In experiment [2] the target is DnaA (split-luciferase fusion) (S. pneumoniae). The experiment can be described thus: split reporter.

These are yes or no findings as the source states them, for the method shown. In cells and extracts the contact can be indirect. Binding can be weak; no strength is given. For part of these data: Sequences can lack the tags named with a protein.

With “CcrZ-LgBit (from UniProt A0A0H2ZQL5 1-264)”, the binding result in experiment [1] is reported as “binds weakly”.
As to “ZapA fused to SmBit (from UniProt A0ACD7PQ13 1-100)”, in experiment [1], the binding result is “binds weakly”.

B1: YabA (split-luciferase fusion) (protein, UniProt B1IBA4 1-105)
chain: MDKKELFDALDDFSQQLLVTLADVEAIKKNLKSLVEENTALRLENSKLRERLGEVEADAPVKAKHVRESVRRIYRDGFHVCNDFYGQRREQDEECMFCDELLYRE
Regarding B1, in experiment [2], the binding entry was “binds”.
